Test results taken from PMC5112231.
These are yes or no findings as the source states them, for the method shown. Some entries that bind do so weakly or less than the wild type.

Chains of the proteins cited; added tags and fusions are not shown.
UniProt P17424: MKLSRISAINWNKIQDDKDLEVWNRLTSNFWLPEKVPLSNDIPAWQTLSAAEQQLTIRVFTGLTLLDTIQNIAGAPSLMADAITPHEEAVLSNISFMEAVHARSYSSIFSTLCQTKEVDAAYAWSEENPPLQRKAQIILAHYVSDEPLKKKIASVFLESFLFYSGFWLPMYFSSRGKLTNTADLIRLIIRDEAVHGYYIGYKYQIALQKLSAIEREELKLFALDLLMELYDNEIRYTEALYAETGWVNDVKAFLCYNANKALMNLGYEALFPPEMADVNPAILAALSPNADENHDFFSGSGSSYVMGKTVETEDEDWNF
UniProt P0A1N2: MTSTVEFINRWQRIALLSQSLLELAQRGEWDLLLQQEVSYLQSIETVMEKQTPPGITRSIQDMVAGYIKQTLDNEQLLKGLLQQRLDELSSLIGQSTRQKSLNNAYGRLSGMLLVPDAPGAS

T1: acetyltransferase Pat (protein acetyltransferase), pUT18-pat bait (Salmonella Typhimurium) (UniProt Q8ZMX2)
T1 sequence: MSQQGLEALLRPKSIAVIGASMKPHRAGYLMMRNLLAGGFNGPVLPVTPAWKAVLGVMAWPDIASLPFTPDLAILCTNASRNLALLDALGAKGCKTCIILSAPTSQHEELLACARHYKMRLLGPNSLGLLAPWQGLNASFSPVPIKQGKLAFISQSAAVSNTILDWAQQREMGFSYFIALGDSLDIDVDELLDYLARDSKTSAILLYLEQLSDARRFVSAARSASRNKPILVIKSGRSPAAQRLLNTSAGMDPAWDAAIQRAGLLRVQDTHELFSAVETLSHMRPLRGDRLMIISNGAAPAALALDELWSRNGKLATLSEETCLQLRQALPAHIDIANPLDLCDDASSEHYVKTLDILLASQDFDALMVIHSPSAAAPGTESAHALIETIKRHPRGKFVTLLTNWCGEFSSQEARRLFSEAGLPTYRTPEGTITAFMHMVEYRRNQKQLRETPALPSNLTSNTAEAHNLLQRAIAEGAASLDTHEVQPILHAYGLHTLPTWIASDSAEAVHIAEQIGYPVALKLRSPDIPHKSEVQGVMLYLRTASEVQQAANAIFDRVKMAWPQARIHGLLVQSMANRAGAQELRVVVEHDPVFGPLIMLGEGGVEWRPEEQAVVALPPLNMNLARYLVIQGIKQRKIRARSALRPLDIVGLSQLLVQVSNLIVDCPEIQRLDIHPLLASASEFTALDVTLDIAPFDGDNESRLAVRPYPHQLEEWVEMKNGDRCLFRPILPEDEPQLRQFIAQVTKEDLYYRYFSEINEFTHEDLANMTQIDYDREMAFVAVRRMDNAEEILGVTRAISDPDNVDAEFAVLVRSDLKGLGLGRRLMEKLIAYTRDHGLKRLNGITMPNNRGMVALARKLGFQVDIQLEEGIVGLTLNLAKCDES

B1: Lrp (leucine-responsive regulatory protein), full-length gene in pKT25 (protein, UniProt P0A2S0 1-164)
chain: MVDSKKRPGKDLDRIDRNILNELQKDGRISNVELSKRVGLSPTPCLERVRRLERQGFIQGYTALLNPHYLDASLLVFVEITLNRGAPDVFEQFNAAVQKLEEIQECHLVSGDFDYLLKTRVPDMSAYRKLLGETLLRLPGVNDTRTYVVMEEVKQSNRLVIKTR
B2: RhaR, full-length gene in pKT25 (protein, UniProt P40865 1-282)
chain: MANQLILLKKDFFTDEQQAVTVADRYPQDVFAEHTHEFCELVMVWRGNGLHVLNERPYRITRGDLFYIRAEDKHSYTSVNDLVLQNIIYCPERLKLNVNWQAMIPGFQGAQWHPHWRLGSMGMNQARQVINQLEHESNGRDPLANEMAELLFGQLVMTLKRHRYATDDLPATSRETLLDKLITALANSLECPFALDAFCQQEQCSERVLRQQFRAQTGMTINQYLRQVRICHAQYLLQHSPLMISEISMQCGFEDSNYFSVVFTRETGMTPSQWRHLSNQSD

Target: T1, acetyltransferase Pat (protein acetyltransferase), pUT18-pat bait (Salmonella Typhimurium)
Experiment: two-hybrid; bacterial adenylate cyclase two-hybrid, pairwise: full-length genes in pKT25 co-transformed with pUT18-pat into E. coli BTH101, spotted onto screening medium (X-gal, IPTG); blue colonies mean interaction

binding, binds:
NrdF, full-length gene in pKT25 (from UniProt P17424 1-319)
FliT, full-length gene in pKT25 (from UniProt P0A1N2 1-122)
B1
B2
